# Measured values taken from PubChem BioAssay (NCATS).
# Sequences of proteins named here, by UniProt entry; tags and fusion partners are left off. A change or cut given only in a name is not applied to a line headed by its entry.
# UniProt Q9UNA4: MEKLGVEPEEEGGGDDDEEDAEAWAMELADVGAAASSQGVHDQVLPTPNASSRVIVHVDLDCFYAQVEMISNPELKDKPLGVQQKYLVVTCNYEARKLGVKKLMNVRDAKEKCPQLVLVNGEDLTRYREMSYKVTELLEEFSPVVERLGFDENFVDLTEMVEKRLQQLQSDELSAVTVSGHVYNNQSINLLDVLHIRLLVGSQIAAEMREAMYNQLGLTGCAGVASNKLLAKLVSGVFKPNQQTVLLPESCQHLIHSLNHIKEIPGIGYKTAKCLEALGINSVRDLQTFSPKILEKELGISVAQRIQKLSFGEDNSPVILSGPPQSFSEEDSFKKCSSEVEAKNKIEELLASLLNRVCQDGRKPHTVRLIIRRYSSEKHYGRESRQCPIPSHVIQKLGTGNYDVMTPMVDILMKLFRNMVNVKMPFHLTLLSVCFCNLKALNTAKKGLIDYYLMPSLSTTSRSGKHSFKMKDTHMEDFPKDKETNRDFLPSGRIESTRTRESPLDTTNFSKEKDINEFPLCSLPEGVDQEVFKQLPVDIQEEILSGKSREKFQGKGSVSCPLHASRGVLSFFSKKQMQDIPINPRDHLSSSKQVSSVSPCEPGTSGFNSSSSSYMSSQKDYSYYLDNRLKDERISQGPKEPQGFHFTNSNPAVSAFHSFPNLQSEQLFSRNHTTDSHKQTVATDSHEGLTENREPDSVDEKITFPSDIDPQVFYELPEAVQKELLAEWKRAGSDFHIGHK
# Where “and” joins values, the source holds several entries; their conditions need not be identical. Equal entries are not always repeated. Inconclusive means that the source gave no clear call. Such entries were picked first, then a sample of the others. For some assays here: Potencies beside an inconclusive call are fits to weak or partial responses and may not hold up. Calls of active or inactive are those of the source. Unless noted, calls follow the shape of the dose curve; as a rule, active = well fitted curve in the direction sought with a large enough effect; inconclusive = small, poorly fitted or top-dose-only effect, or another doubt; inactive = no such curve, though single readings can be large; an effect the other way counts as inactive or inconclusive.
# Tests used:
# [1] = target: DNA polymerase iota (Homo sapiens) (UniProt Q9UNA4); assay: qHTS for Inhibitors of Polymerase Iota: Confirmatory Assay for Cherry-picked Compounds (AID 720496); settings: Pol iota primer extension, TAMRA/BHQ fluorescence; also: potency is read from the fitted curve at half-maximal effect
# In short: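 Enzyme (10 nM Pol iota) and compound sit together for 15 min at room temperature. Adding annealed primer/TAMRA-reporter/BHQ-2-template substrate, 50 nM final, starts the reaction, which is followed by fluorescence over 10 min.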
# [2] = qHTS assay for measurement of the activity of small molecule inhibitors on Zika virus induced Caspase-3 activity in human iPSC derived neural progenitor cells (hNPCs) (AID 1224857); settings: hNPCs ZIKV-induced caspase-3/7, Caspase-Glo luminescence, 6 h; series mostly up to 45.7 µM; also: nearly all actives have a fitted effect of over 65% in size; also: potency is read from the fitted curve at half-maximal effect
# In short: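 Percent inhibition of virus-induced caspase-3/7 luminescence (Caspase-Glo), scaled between uninfected cells and Zika-infected cells. hNPCs received compound 1 hr before ZIKV at 2 FFU/cell, with 6 hours infection at 37 C.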
# [3] = qHTS Screen of the MIPE 4.0 Collection Against Ewings Sarcoma (EW8) (AID 1259255); settings: EW8 Ewing sarcoma viability, CellTiter-Glo, 48 h; series mostly up to 45.8 µM; also: nearly all actives have a fitted effect of over 35% in size; also: potency is read from the fitted curve at half-maximal effect;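 as to viability: 100% = DMSO-treated cells and 0% = medium-only wells without cells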
# In short: (§1)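 CellTiter-Glo luminescence after 48 h compound exposure (titration) gave viability; percent activity used DMSO-treated cells as no inhibition and medium-only wells as full inhibition. Cells grown in RPMI/5% FBS, dosed 4 h post-seeding.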
# [4] = qHTS Assay for Identifying Gametocytocidal Compounds (AID 743244); also: potency is read from the fitted curve at half-maximal effect;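 as to max response: % is scaled to controls: 0 for no effect and ±100 for the full control effect; actives lower the fluorescent signal which means gametocytes are killed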; settings: P. falciparum 3D7 stage III-V gametocytes, alamarBlue, 72 h; max response: stronger effect = lower value
# In short: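 Viability read-out was resazurin reduction (alamarBlue, 24 h) measured at Ex 525/Em 598 nm. Beforehand, late-stage (III-V) 3D7 P. falciparum gametocytes at 20,000 cells/well were incubated with compound 72 h at 37C under 5% CO2.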
# [5] = qHTS Screen of the MIPE 4.0 Collection Against Ewings Sarcoma (TC71) (AID 1259253); settings: TC71 Ewing sarcoma viability, CellTiter-Glo, 48 h; series mostly up to 45.8 µM;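 also: 100% = DMSO-treated cells and 0% = medium-only wells without cells; nearly all actives have a fitted effect of over 40% in size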
# In short: as §1
# [6] = qHTS for Activators of Parkin Expression: LOPAC Validation Assay (FLuc Reporter) (AID 720573; also: potency is read from the fitted curve at half-maximal effect); settings: Cell line, PRKN promoter firefly luciferase reporter; series mostly up to 46.1 µM
# In short: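 FLuc luminescence read-out from a neuronal line expressing a Parkin-promoter-driven coincidence reporter. Cells treated 24 h at 37 C, 5% CO2 with compounds at 7 concentrations; signal increase normalized to DMSO and positive control.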
# [7] = qHTS assay for small molecule antagonists of the retinoid-related orphan receptor gamma (ROR-gamma) signaling pathway - cell viability counter screen (AID 720652; active = well fitted curve in the direction sought with a large enough effect in the repeat runs; inconclusive = weak or mixed curves; inactive = no such curve, though single readings can be large; an effect the other way counts as inactive or inconclusive;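 also: potency is read from the fitted curve at half-maximal effect; compound exposure lasted 16 hr before ATP read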); settings: RORgamma reporter cell line viability counter screen; series mostly up to 92.2 µM
# In short: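 Steps: seed CHO cells bearing TET-inducible ROR and ROR response element-luciferase; rest 5 hr at 37 C; add compound, then doxycycline; incubate 16 hr; add CellTiter-Glo and read luminescence as ATP-based viability.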
# [8] = qHTS assay for cell viability of HEK293 cells (AID 743288); settings: ATP luminescence (CellTiter-Glo), 18 h; max response: stronger effect = lower value; also: potency is read from the fitted curve at half-maximal effect; nearly all actives have a fitted effect of over 50% in size
# In short: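 ATP luminescence (CellTiter-Glo) reports metabolically competent cell number after parental HEK293 cells, 2,000/well, were treated with DMSO-dissolved compounds for 18 h at 37 C; reagent incubation 30 min, room temperature.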
# [9] = qHTS for Activators of Parkin Expression: LOPAC Validation Assay (NLuc Reporter) (AID 720572; also: potency is read from the fitted curve at half-maximal effect); settings: Parkin promoter NanoLuc reporter cells, luminescence; series mostly up to 46.1 µM
# In short: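 Compound effects on Parkin promoter activity were measured as NanoLuc luminescence after 24 h at 37 C. The neuronal reporter line also carried FLuc, which was read first. LOPAC compounds were tested at 7 concentrations, with normalization to DMSO (0%) and positive control (100%).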
# [10] = qHTS assay for small molecule agonists of the antioxidant response element (ARE) signaling pathway measured by Nrf2-dependant transcriptional activity - cell viability counter screen (AID 720653; active = well fitted curve in the direction sought with a large enough effect in the repeat runs; inconclusive = weak or mixed curves; inactive = no such curve, though single readings can be large; an effect the other way counts as inactive or inconclusive; also: potency is read from the fitted curve at half-maximal effect); settings: ARE-bla HepG2 viability, CellTiter-Glo ATP luminescence, 16 h; max response: stronger effect = lower value
# In short: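 Cytotoxicity counter screen: intracellular ATP quantified by CellTiter-Glo luminescence in the same ARE-bla HepG2 plates, after 16 h compound exposure and a 2 h beta-lactamase substrate step.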
smiles,measurement,setting,value
O=c1cc(-c2ccccc2)oc2cc(O)c(O)c(O)c12,Potency,[1],"inconclusive: 37.7 µM [inhibitor, partial curve]"
same,Potency,[2],"inconclusive: 23.5 µM [inhibitor, single point]"
same,Potency,[3],"inconclusive: 33.2 µM [inhibitor, single point]"
CC(C)OC(=O)CCCC=CC[C@@H]1[C@H](C=C[C@@H](O)COc2cccc(C(F)(F)F)c2)[C@H](O)C[C@@H]1O,Potency,[2],"inconclusive: 4.69 µM [inhibitor, partial curve, poor fit]"
same,Potency,[3],"inconclusive: 29.6 µM [inhibitor, partial curve, poor fit]"
CC=CC[C@@H](C)C(=O)[C@H]1C(=O)N[C@@H](C(C)C)C(=O)N(C)CC(=O)N(C)[C@@H](CC(C)C)C(=O)N[C@@H](C(C)C)C(=O)N(C)[C@@H](CC(C)C)C(=O)N[C@@H](C)C(=O)N[C@H](C)C(=O)N(C)[C@@H](CC(C)C)C(=O)N(C)[C@@H](CC(C)C)C(=O)N(C)[C@@H](C(C)C)C(=O)N1C,Potency,[2],"inconclusive: 16.6 µM [inhibitor, single point]"
same,Potency,[3],inactive
O=C(NOCC1CC1)c1ccc(F)c(F)c1Nc1ccc(I)cc1Cl,Potency,[4],"inconclusive: 35.5 µM [inhibitor, single point]"
same,Potency,[2],inactive
same,Potency,[3],"inconclusive: 33.2 µM [inhibitor, single point]"
NS(=O)(=O)c1cccc2c1C(=O)c1cccc(O)c1C2=O,Potency,[2],"inconclusive: 2.35 µM [inhibitor, full curve]"
same,Potency,[3],active: 11.8 µM
C[C@@H]1CCN(C(=O)CC#N)C[C@H]1N(C)c1ncnc2[nH]ccc12,Potency,[2],"inconclusive: 1.48 µM [inhibitor, partial curve, poor fit]"
same,Potency,[5],inactive
same,Potency,[3],inactive
CCC(=C(CC)c1ccc(O)cc1)c1ccc(O)cc1,Potency,[2],inactive
same,Potency,[3],active: 26.4 µM
CN(C1CCc2c(c3ccccc3n2CC(=O)O)C1)S(=O)(=O)c1ccc(F)cc1 (configuration not stated),Potency,[2],inactive
same,Potency,[5],inactive
CC[C@@]1(O)C[C@H](O[C@H]2C[C@H](N(C)C)[C@H](O[C@H]3C[C@H](O)[C@H](O[C@H]4CCC(=O)[C@H](C)O4)[C@H](C)O3)[C@H](C)O2)c2c(cc3c(c2O)C(=O)c2c(O)cccc2C3=O)[C@@H]1C(=O)OC,Potency,[2],"inconclusive: 4.18 µM [inhibitor, single point]"
same,Potency,[3],active: 0.296 µM
O=C1NC(=O)/C(=C/c2ccc3nccnc3c2)S1,Potency,[6],"inconclusive: 4.61 µM [activator, full curve, poor fit]"
same,Potency,[2],"inconclusive: 22.4 µM [inhibitor, partial curve, poor fit]"
Nc1ccccc1N,Potency,[7],"inconclusive: 66.8 µM [cytotoxic, partial curve]"
same,Potency,[4],"inconclusive: 31.6 µM [inhibitor, single point]"
same,Potency,[8],"inconclusive: 44.7 µM [cytotoxic, partial curve, poor fit]"
same,Potency,[2],"inconclusive: 11.2 µM [inhibitor, full curve, poor fit]"
O=c1cc(N2CCOCC2)oc2c(-c3ccccc3)cccc12,Potency,[9],"inconclusive: 23.1 µM [activator, single point]"
same,Potency,[6],"inconclusive: 18.4 µM [activator, single point]"
same,Potency,[2],"inconclusive: 26.4 µM [inhibitor, partial curve, poor fit]"
S=c1[nH]c2ccccc2s1,Potency,[4],"inconclusive: 31.6 µM [inhibitor, partial curve] and inconclusive: 12.6 µM [inhibitor, partial curve]"
same,Potency,[2],"inconclusive: 10 µM [inhibitor, full curve]"
c1cnc2c(c1)ccc1cccnc12,Potency,[6],"inconclusive: 25.9 µM [activator, single point]"
same,Potency,[7],"inconclusive: 33.5 µM [cytotoxic, partial curve]"
same,Potency,[8],"inconclusive: 11.2 µM [cytotoxic, full curve]"
same,Potency,[2],inactive
Cc1cccc(/C=C/c2ccccc2)n1,Potency,[6],"inconclusive: 3.66 µM [activator, full curve]"
same,Potency,[2],"inconclusive: 12.6 µM [inhibitor, partial curve, poor fit]"
CN(C)c1ccc2nc3ccc(=[N+](C)C)cc-3sc2c1,Potency,[7],"inconclusive: 23.7 µM [cytotoxic, full curve]"
same,Potency,[10],active: 10 µM
same,Potency,[4],active: 166 nM and active: 303 nM
same,Potency,[2],"inconclusive: 35.5 µM [inhibitor, partial curve, poor fit]"
COCCOC(=O)C1=C(C)NC(C)=C(C(=O)OC/C=C/c2ccccc2)C1c1cccc([N+](=O)[O-])c1 (configuration not stated),Potency,[9],active: 5.17 µM
same,Potency,[2],"inconclusive: 12.6 µM [inhibitor, single point]"
O=C1/C(=C/c2ccsc2)CC/C1=C\c1cccs1,Potency,[6],active: 18.4 µM
same,max response,[4],inactive: 30.3%
same,Potency,[2],"inconclusive: 5.01 µM [inhibitor, full curve, poor fit]"

# Part of the list above, as tab-separated lines.
smiles	measurement	setting	value
CN(C1CCc2c(c3ccccc3n2CC(=O)O)C1)S(=O)(=O)c1ccc(F)cc1 (configuration not stated)	Potency	[2]	inactive
same	Potency	[5]	inactive
CC[C@@]1(O)C[C@H](O[C@H]2C[C@H](N(C)C)[C@H](O[C@H]3C[C@H](O)[C@H](O[C@H]4CCC(=O)[C@H](C)O4)[C@H](C)O3)[C@H](C)O2)c2c(cc3c(c2O)C(=O)c2c(O)cccc2C3=O)[C@@H]1C(=O)OC	Potency	[2]	inconclusive: 4.18 µM [inhibitor, single point]
same	Potency	[3]	active: 0.296 µM
O=C1NC(=O)/C(=C/c2ccc3nccnc3c2)S1	Potency	[6]	inconclusive: 4.61 µM [activator, full curve, poor fit]
same	Potency	[2]	inconclusive: 22.4 µM [inhibitor, partial curve, poor fit]
Nc1ccccc1N	Potency	[7]	inconclusive: 66.8 µM [cytotoxic, partial curve]
same	Potency	[4]	inconclusive: 31.6 µM [inhibitor, single point]
same	Potency	[8]	inconclusive: 44.7 µM [cytotoxic, partial curve, poor fit]
same	Potency	[2]	inconclusive: 11.2 µM [inhibitor, full curve, poor fit]
